# From PubChem BioAssay AID485314 (National Center for Advancing Translational Sciences (NCATS), 2010)
# In all, about 340,000 compounds went through this assay and about 4,500 (1.3%) were called active. Inconclusive means that the source gave no clear call. Such entries were picked first, then a sample of the others. The call rests on the fitted dose curve; in most records, active means well fitted inhibition curve with a large enough effect; inconclusive means small, poorly fitted or top-dose-only effect, or another doubt; inactive means no such curve, though single readings can be large or run the other way. Potencies beside an inconclusive call are fits to weak or partial responses and may not hold up.
# Target: DNA polymerase beta (Homo sapiens) (UniProt P06746)
# Assay: qHTS Assay for Inhibitors of DNA Polymerase Beta
# Conditions: Pol beta primer extension/strand displacement, fluorescence kinetic; activity change, negative = inhibition: at 114 µM (top of the series)
# Summary of the method: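 Reaction started by 50 nM substrate onto compound-treated Pol beta (10 nM, 15 min preincubation, room temperature); plates read at 0 min and 10 min. Normalized concentration-effect data fitted by four-parameter Hill equation.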
# On the % scale 0 is the no-effect control and ±100 the full control effect; potency means the concentration at half of the fitted maximal effect.
SMILES,Potency,"activity change, negative = inhibition"
CCN1CCCC1CNC(=O)c1ccc2c(c1)NC(=O)/C(=C\c1ccc(OC)c(OC)c1)S2 (stereo not drawn),"inconclusive: 44.7 µM [inhibitor, single point]",
CC(NC(=O)c1nn(C)c(=O)c2ccccc12)c1ccccc1 (stereo not drawn),"inconclusive: 100 µM [inhibitor, single point]",
O=C(Nc1ccccc1)C1Cc2ccccc2CN1C(=O)c1ccco1 (stereo not drawn),"inconclusive: 17.8 µM [inhibitor, full curve]",
O=C(c1nn(Cc2ccccc2)c(=O)c2ccccc12)N1CCN(C/C=C/c2ccccc2)CC1,"inconclusive: 35.5 µM [inhibitor, partial curve, poor fit]",
CCN(CCCNC(=O)Cn1ncc2c3ccccc3n(C)c2c1=O)c1cccc(C)c1,"inconclusive: 89.1 µM [inhibitor, single point]",
Cn1c(=O)[nH]c(=O)c2c1nc(Br)n2CCSc1ncccn1,"inconclusive: 63.1 µM [inhibitor, single point]",
CC1CC(=O)N(CC(=O)Nc2ccc(OC(F)(F)F)cc2)c2ccccc2S1 (stereo not drawn),inactive,
CCCN1CCN(C(=O)Cn2ncc3c4ccccc4n(Cc4cccc(Cl)c4)c3c2=O)CC1,"inconclusive: 39.8 µM [inhibitor, partial curve]",
Cc1ccc(C(C(=O)NC(C)(C)C)N(Cc2cccs2)C(=O)c2ccc3c(c2)OCCO3)cc1 (stereo not drawn),"inconclusive: 89.1 µM [inhibitor, single point]",
CCC(C)[C@H]1CNC(=S)N1CCc1cc(C(F)(F)F)cc(C(F)(F)F)c1 (stereo partly drawn),"inconclusive: 39.8 µM [inhibitor, single point]",
COc1ccc(OC)c(NC(=O)Cn2c(CCC(=O)O)ccc2-c2ccccc2)c1,"inconclusive: 39.8 µM [inhibitor, single point]",
O=C1c2cccc3cccc(c23)C(=O)N1OS(=O)(=O)c1ccc(Br)cc1,inactive,
O=C(OCC(=O)c1ccc(Cl)s1)c1cnccn1,"inconclusive: 89.1 µM [inhibitor, single point]",
CCN(CC(=O)NC(=O)NCc1ccco1)Cc1nc2ccccc2c(=O)[nH]1,"inconclusive: 39.8 µM [inhibitor, full curve, poor fit]",
CCOC(=O)NC1(Nc2ccc(Cl)cn2)Oc2ccccc2O1,"inconclusive: 25.1 µM [inhibitor, full curve]",
COc1ccccc1NC(=O)C1=C(C)NC(=O)NC1c1cccs1 (stereo not drawn),"inconclusive: 15.8 µM [inhibitor, full curve]",
O=C(COC(=O)c1ccc([N+](=O)[O-])s1)NCc1ccccc1,active: 12.6 µM,
C=CCNC(=O)c1onc(CSc2ccccc2C)c1C(=O)O,"inconclusive: 28.2 µM [inhibitor, single point]",
O=C(NC1CC1)C1CCN(C2CCN(C(=O)/C=C/c3cccs3)CC2)CC1,"inconclusive: 25.1 µM [inhibitor, single point]",

SMILES,Potency,"activity change, negative = inhibition"
CC(C)(CNS(C)(=O)=O)SCc1ccc(Cl)cc1,"inconclusive: 89.1 µM [inhibitor, single point]",
CCOC(=O)N1CCN(C2OC(=O)c3ccccc32)CC1 (stereo not drawn),"inconclusive: 79.4 µM [inhibitor, single point]",
Cc1ccc2c(c1)sc(-c1ccc(N(C)C)cc1)[n+]2C,"inconclusive: 31.6 µM [inhibitor, single point]",
Cc1c(C(=O)NCc2ccc(OC(C)C)cc2)sc2ncnc(N(C)C3CCCCC3)c12,"inconclusive: 31.6 µM [inhibitor, single point]",
CN(CCc1ccccn1)C1CCCN(S(=O)(=O)c2ccccc2Cl)C1 (stereo not drawn),"inconclusive: 0.398 µM [inhibitor, full curve, poor fit]",
Cc1c(/C=N/n2cnnc2)c2ccccc2n1CCOc1ccccc1,"inconclusive: 79.4 µM [inhibitor, single point]",
O=C(NCc1ccccc1)c1ccc(N2C(=O)C3CCCCC3C2=O)cc1 (stereo not drawn),"inconclusive: 100 µM [inhibitor, single point]",
CCCC(C)NC(=O)Cc1ccccc1 (stereo not drawn),"inconclusive: 89.1 µM [inhibitor, single point]",
Cn1c(=O)c2c(nc(CN3CCC(C(N)=O)CC3)n2Cc2c(Cl)cccc2Cl)n(C)c1=O,"inconclusive: 10 µM [inhibitor, partial curve, poor fit]",
CCOC(=O)c1c(C)oc2nc(C)nc(N3CCN(c4cccc(C(F)(F)F)c4)CC3)c12,"inconclusive: 89.1 µM [inhibitor, single point]",
O=C(COc1ccccc1Cl)OCC(=O)N1CCN(S(=O)(=O)c2ccccc2)CC1,"inconclusive: 89.1 µM [inhibitor, single point]",
CCCCOc1cc(C)nc(NCc2ccccc2)n1,"inconclusive: 3.16 µM [inhibitor, full curve]",
CCOc1cc(/C=N\NC(N)=O)cc(Br)c1OC(C)C,"inconclusive: 39.8 µM [inhibitor, single point]",
COc1cccc(CC(=O)Nc2ccc(S(=O)(=O)Nc3nc(C)cc(C)n3)cc2)c1,"inconclusive: 89.1 µM [inhibitor, single point]",
CCCn1c2ccccc2c2cnn(CC(=O)NCCCN(Cc3ccccc3)C(C)C)c(=O)c21,inactive,
COC(=O)CSc1ccnc2cc(Cl)ccc12,"inconclusive: 11.2 µM [inhibitor, partial curve, poor fit]",
O=C(Nc1ccncc1NC(=O)c1cccc([N+](=O)[O-])c1)c1cccc([N+](=O)[O-])c1,"inconclusive: 3.16 µM [inhibitor, partial curve, poor fit]",
Cc1cc2nc(-c3ccc(SCC(=O)Nc4ccc(S(=O)(=O)NC5CC5)cc4)nc3)[nH]c2cc1C,"inconclusive: 89.1 µM [inhibitor, single point]",
Cc1nn(Cc2c(Cl)cccc2Cl)c(C)c1NC(=O)c1cnn2c(C(F)F)cc(-c3ccccc3)nc12,"inconclusive: 0.316 µM [inhibitor, full curve, poor fit]",
Cc1ccc(C(=O)N2CCN3C(=O)c4ccccc4C23c2ccc(Cl)cc2)cc1 (stereo not drawn),inactive,
O=C(Cn1c(=O)oc2ccccc21)Nc1cccc(Cl)c1,"inconclusive: 39.8 µM [inhibitor, single point]",

SMILES,Potency,"activity change, negative = inhibition"
Cc1ccc(C(=O)Nc2ccc(S(=O)(=O)NCc3ccco3)cc2)cc1,"inconclusive: 25.1 µM [inhibitor, partial curve, poor fit]",
O=C(Oc1cccc(O)c1)C1CCCCC1,"inconclusive: 3.98 µM [inhibitor, full curve, poor fit]",
CCc1cc2c(cc3c(=O)n(CC(=O)NCCc4ccccc4)ncn32)s1,"inconclusive: 39.8 µM [inhibitor, single point]",
Cc1cc(C)cc(OCCSc2nc(-c3cccs3)nc3cc(=O)[nH]n23)c1,"inconclusive: 44.7 µM [inhibitor, partial curve]",
CCOc1ccc(S(=O)(=O)Nc2cc(Cl)ccc2OC)c2cccnc12,"inconclusive: 56.2 µM [inhibitor, partial curve]",
Cc1cc(C)n(Cc2ccc(C(=O)N/N=C/c3ccc(-c4ccc([N+](=O)[O-])cc4)o3)o2)n1,active: 2 µM,
O=C(CN1CCOc2ccccc21)NCc1cccs1,"inconclusive: 15.8 µM [inhibitor, partial curve, poor fit]",
CC1Cc2ccccc2N1C(=O)CSc1nnc2sc3ccccc3n12 (stereo not drawn),"inconclusive: 100 µM [inhibitor, single point]",
Cc1nnc2c3ccccc3nc(Nc3cccc(O)c3)n12,inactive,
CCOc1ccc2oc(C(=O)N3CCN(c4ccccn4)CC3)c(C)c2c1,,inconclusive: -58.6% [inhibitor]
COc1ccccc1N1C(=O)S/C(=C\c2cccs2)C1=O,"inconclusive: 89.1 µM [inhibitor, single point]",
Cc1cc(C)cc(-n2ccn(Cc3ccc(F)cc3)c(=O)c2=O)c1,inactive,
CC(C)C(C(=O)O)N1C(=O)/C(=C/C=C/c2ccco2)SC1=S (stereo not drawn),active: 1.58 µM,
O=C(CCC(=O)Nc1ccccc1)N/N=C/C=C/c1ccccc1,"inconclusive: 28.2 µM [inhibitor, full curve, poor fit]",
COc1ccc2c(COC(=O)CCS(=O)(=O)c3ccccc3)cc(=O)oc2c1,"inconclusive: 22.4 µM [inhibitor, partial curve, poor fit]",
COc1ccc2oc(-c3cccc(NC(=O)c4sc5c([N+](=O)[O-])cccc5c4Cl)c3)nc2c1,inactive,
CCc1ccc(/C=C2/SC(=S)N(CCCC(=O)Nc3ccccc3C(=O)O)C2=O)cc1,inactive,
Cc1ccc(CNC(=O)CCCN2C(=O)COc3ccc(C)cc32)cc1,"inconclusive: 89.1 µM [inhibitor, single point]",
Cc1ccc(S(=O)(=O)N2c3ccccc3NC(=O)C2CC(=O)Nc2ccccc2)cc1 (stereo not drawn),"inconclusive: 0.0891 µM [inhibitor, full curve, poor fit]",
Cc1cc(C)cc(NC(=O)C2CCN(S(=O)(=O)c3cccc(-c4noc(C)n4)c3)CC2)c1,"inconclusive: 100 µM [inhibitor, single point]",
O=C1/C(=C/c2ccco2)CCc2ccccc21,"inconclusive: 44.7 µM [inhibitor, partial curve]",

# A run of entries from further up:
SMILES,Potency,"activity change, negative = inhibition"
Cc1ccc(S(=O)(=O)N2c3ccccc3NC(=O)C2CC(=O)Nc2ccccc2)cc1 (stereo not drawn),"inconclusive: 0.0891 µM [inhibitor, full curve, poor fit]",
Cc1cc(C)cc(NC(=O)C2CCN(S(=O)(=O)c3cccc(-c4noc(C)n4)c3)CC2)c1,"inconclusive: 100 µM [inhibitor, single point]",
